Drawing on paper PMC7397656, this text covers binding for one substance.

Chains of the proteins cited; added tags and fusions are not shown.
UniProt Q15569: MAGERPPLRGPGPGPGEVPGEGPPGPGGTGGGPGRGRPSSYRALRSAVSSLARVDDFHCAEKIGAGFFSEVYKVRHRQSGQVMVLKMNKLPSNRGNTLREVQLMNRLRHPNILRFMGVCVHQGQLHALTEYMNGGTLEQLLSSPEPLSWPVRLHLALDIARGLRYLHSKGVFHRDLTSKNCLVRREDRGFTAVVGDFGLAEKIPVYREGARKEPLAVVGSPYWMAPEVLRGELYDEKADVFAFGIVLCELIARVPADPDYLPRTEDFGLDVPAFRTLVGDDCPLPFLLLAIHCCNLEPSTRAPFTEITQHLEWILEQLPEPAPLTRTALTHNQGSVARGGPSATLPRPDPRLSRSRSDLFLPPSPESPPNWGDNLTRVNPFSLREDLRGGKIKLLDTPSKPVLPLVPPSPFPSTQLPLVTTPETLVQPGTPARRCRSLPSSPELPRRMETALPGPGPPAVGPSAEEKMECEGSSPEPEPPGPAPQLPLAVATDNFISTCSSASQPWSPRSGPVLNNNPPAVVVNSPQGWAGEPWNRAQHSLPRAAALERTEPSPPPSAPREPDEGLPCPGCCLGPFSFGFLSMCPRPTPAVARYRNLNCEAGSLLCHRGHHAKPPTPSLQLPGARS

No constants are given. Whether binding was seen depends on the method and setting. Binding seen in cells or lysates may run through a third protein. Some binding calls cover weakened binding; strength is not graded here.

The test deals with α-Parvin (human (endogenous in human primary neurons)) (UniProt Q9NVD7). Nature of the test: co-IP; anti-Parvin antibody on RIPA lysates of human primary neurons, untreated, exposed to Tat or TNFα (50 ng/ml, 48 h), or overexpressing PINCH; Western blot of the precipitate.

As for “testicular protein kinase 1 (TESK1) (from UniProt Q15569 1-626)”, the binding entry was “binds”.
